Test results from patent US20180148496A1.
These are yes or no findings as the source states them, for the method shown. Some binding calls cover weakened binding; strength is not graded here.

Key:
[1] = biological target: m47b: myristoylated lipopeptide comprising amino acids 2-48 of pre-S1 domain, biotin at the C-terminus, myristoylation at the N-terminus (Hepatitis B virus (genotype not stated for this peptide)); test: ELISA on peptide captured by streptavidin
[2] = biological target: 47b (a peptide similar to m47b but without the myristoylation) (Hepatitis B virus (genotype not stated for this peptide)); test: ELISA on peptide captured by streptavidin

B1: m36 (antibody, V domains shown)
VH: QMQLVQSGGGLVQPGRSLRLSCAASGFTFDDYAMHWVRQAPGKGLEWVSGISWNSGSIGYADSVKGRFTISRDNAKNSLYLQMNSLRAEDTALYYCAKTSYGGAFDIWGQGTMVTVSS
VL: QPVLTQSPSASGTPGQRVTISCSGNTSNIGSYYAYWYQQLPGTAPKLLIYDNNQRPSGIPARFSGSKSGTSASLAISGLQSEDEADYYCATWDDSLNGPVFGGGTKVTVL
B1 was tested, and the binding [1] was “binds” and the binding [2] was “binds”.
